# Laboratory results: PMC10827754, “The crystal structure of SUN1-KASH6 reveals an asymmetric LINC complex architecture compatible with nuclear membrane insertion” (Communications Biology, 2024)
# Results are given in words; binding and its absence hold for the method and conditions named. Binding can be weak; no strength is given. For some of these results: Binding seen in cells or lysates may run through a third protein.
# Key:
# [1] = target: SUN domain of human SUN1 (amino-acids 616-812) (human); test: SEC-SAXS; SUN1-KASH6 core 9:6 and 6:6 species; 12-25 mg/ml prepared as for SEC-MALS, Superdex 200 Increase 10/300 GL in 20 mM Hepes pH 7.5, 150 mM KCl, 2 mM DTT; curves fitted with crystal structures (CRYSOL), ab initio envelopes (DAMMIF); both purified
# [2] = target: SUN domain of human SUN1 (amino-acids 616-812) (human); test: cryo-EM 2D class averages; purified complex at 1 mg/ml after treatment at pH 5.0; reference-free 2D class averages; both purified
# [3] = target: SUN domain of human SUN1 (amino-acids 616-812) (human); test: SEC-MALS; untreated (native) co-purified complex; 8-13 mg/ml loaded on Superdex 200 Increase 10/300 GL in 20 mM Hepes pH 7.5, 150 mM KCl, 2 mM DTT; both purified
Binder,binding [1],binding [2],binding [3]
"EDSWTSLEHILWPFTRLRHNGPPPV (peptide, UniProt Q12912 531-555) [KASH6 core (human JAW1/LRMP amino-acids 531-555)]",binds,binds,–
"EDSATSLEHILWPFTRLRHNGPPPV (peptide, UniProt Q12912 531-555) [KASH6 core W534A (human JAW1/LRMP amino-acids 531-555)]",–,–,binds
"EDSWTSLEQILWPFTRLRHNGPPPV (peptide, UniProt Q12912 531-555) [KASH6 core H539Q (human JAW1/LRMP amino-acids 531-555)]",–,–,binds
